# Assay results from PMC12670160, “A drug-repurposing screen of FDA- and EMA-approved drugs identifies two NF-κB inhibitors active against eumycetoma” (Journal of Antimicrobial Chemotherapy, 2025).
# Counter-ions that a name gives are not always drawn. Among all 5,300 compounds or so, about 130 (2.5%) showed an effect of 50% or more. The list shows a part of the results.
# System: M. mycetomatis strain mm55
# Settings: primary screen, metabolic activity vs growth control; 96 h, 2 µM; inhibitor
row,SMILES,% viability [%]
1,"CCN(CC)C(=S)S [ONC0003713, ditiocarbsodiumtrihydrate]",88.67
2,"O=C(c1c(F)ccc(NS(=O)(=O)N2CC[C@@H](F)C2)c1F)c1c[nH]c2ncc(-c3cnc(C4CC4)nc3)cc12 [ONC0000848, plx8394]",61.89
3,"CC(=O)[C@@]1(O)CC[C@H]2[C@@H]3CCC4=CC(=O)CC[C@]4(C)[C@H]3CC[C@@]21C [ONC0005305, hydroxyprogesterone]",50.87
4,"COc1ccc(COc2ccc(CC#N)cc2)cc1 [ONC0003563, o4i1]",136
5,"CC1=C(/C=C/C(C)=C/C=C/C(C)CC=O)C(C)(C)CCC1 (stereo not drawn) [ONC0004153, all trans retinal]",80.19
6,"CCc1[nH]c(=O)[nH]c1C(=O)c1ccncc1 [ONC0003720, piroximone]",96.52
7,"Nc1nc(NCCNc2ncc(-n3ccnc3)c(-c3ccc(Cl)cc3Cl)n2)ccc1[N+](=O)[O-] [ONC0005257, chir98014]",118.6
8,"O=C(NC1(c2ccccc2)CC1)c1c(CN2CCC(N3CCCCC3)CC2)c(-c2cccc(C(F)(F)F)c2)nc2cc(Br)ccc12 [ONC0003010, gsk2193874]",85.52
9,"O=C(Nc1c[nH]nc1-c1nc2cc(CN3CCOCC3)ccc2[nH]1)NC1CC1 [ONC0004692, at9283]",87.23
10,"Clc1ccc2c(c1)CCc1cccnc1C2=C1CCNCC1 [ONC0003934, desloratidine]",77.89
11,"CCCCC/C=C\C/C=C\CCCCCCCC(=O)NCCCC(=O)O [ONC0003440, linoleoyl gaba]",70.93
12,"O=C1NCC2(CCN(CCc3ccccc3)CC2)O1 [ONC0000630, fenspiride hydrochloride]",98.68
13,"CC(C)[C@]12O[C@H]1[C@@H]1O[C@]13[C@]1(O[C@H]1C[C@H]1C4=C(CC[C@@]13C)C(=O)OC4)[C@@H]2O [ONC0004509, triptolide]",76.43
14,"NCC(CC(=O)O)c1ccc(Cl)cc1 (stereo not shown) [ONC0003898, baclofen hydrochloride]",89.35
15,"CCS(=O)(=O)N1CC(CC#N)(n2cc(-c3ncnc4[nH]ccc34)cn2)C1 [ONC0005100, baricitinib ly3009104]",65.39
16,"CN(CCCN1c2ccccc2CCc2ccccc21)CC(=O)c1ccc(Cl)cc1 [ONC0003051, lofepramine]",107
17,"NC[C@H](CC(=O)O)c1ccc(Cl)cc1 [ONC0004793, rbaclofen]",107.3
18,"CC(C)(C)c1cc(C=C(C#N)C#N)cc(Br)c1O [ONC0004740, ag1024]",105.8
19,"O=C(NCc1ccc(F)cc1)N1CCN2C(=O)OC(c3ccccc3)(c3ccccc3)C2C1 (stereo not shown) [ONC0000246, sha68]",68.69
20,"Cc1cc2nc3c(=O)[nH]c(=O)nc-3n(C[C@H](O)[C@H](O)[C@H](O)CO)c2cc1C [ONC0003918, riboflavin]",77.01

row,SMILES,% viability [%]
1,"O=C(O)CCc1ccc(NCc2cccc(Oc3ccccc3)c2)cc1 [ONC0002654, gw9508]",107.7
2,"CC(=O)O[C@@H]1C[C@H]2C(C)(C)C(=O)C=C[C@]2(C)[C@H]2CC[C@@]3(C)[C@H](c4ccoc4)OC(=O)[C@H]4O[C@]43[C@@]21C [ONC0004077, gedunin]",121.6
3,"CC(C)c1ccccc1Cc1cc(C(=O)Nc2ccc(S(=O)(=O)c3ccccc3C(C)(C)C)cc2)c(O)c(O)c1O [ONC0004623, tw37]",77.11
4,"O=C(Cn1c(=O)sc2ccc(Cl)cc21)N1CCN(CCO)CC1 [ONC0002129, tiaramide]",71.3
5,"CC1(C)OC[C@@H](COC(=O)CCc2ccc(OC[C@@H](O)CNCCNC(=O)N3CCOCC3)cc2)O1 [ONC0003362, landiolol hcl]",79.88
6,"O=C1NC(=O)c2cc(Nc3ccccc3)c(Nc3ccccc3)cc21 [ONC0002702, cgp52411]",70.66
7,"Cc1cc(-c2ccc3c(c2)CC[C@H]3N2CC3(CCN(C(=O)Cc4cn5cc(C)sc5n4)CC3)C2)ncn1 [ONC0005573, pf05190457]",84.6
8,"Cc1[nH]cnc1CN1CCc2c(c3ccccc3n2C)C1=O [ONC0003507, alosetronhcl]",73.4
9,"O=S(=O)(c1cccc2c(O)nccc12)N1CCCNCC1 [ONC0001395, hydroxyfasudil]",104.4
10,"CC(C)NC(=O)N1CC[C@H](NC2=Nc3cc(F)ccc3N(CC(F)F)c3ccc(Cl)cc32)C1 [ONC0002259, nvspak11]",189.5
11,"C=CC(=O)[O-].[Na+] [ONC0002646, sodium acrylate]",77.54
12,"COCc1c[n+]([O-])c(C)cn1 [ONC0005343, proacipimox]",127.4
13,"O=C1CC[C@@]2(O)[C@H]3Cc4ccc(O)c5c4[C@@]2(CCN3CC2CC2)[C@H]1O5 [ONC0003097, naltrexone hydrochloride]",75.74
14,"CC12CCC(=O)C=C1CCC1C2[C@@H](O)CC2(C)C1CC[C@]2(O)C(=O)COP(=O)(O)O (stereo partly shown) [ONC0000361, hydrocortisone phosphate triethylamine]",86.07
15,"Nc1ncnc2c1ncn2[C@@H]1O[C@H](CO)[C@@H](O)[C@@H]1O [ONC0003864, vidarabine]",78.11
16,"N=C(Nc1ccccc1)c1cccs1 [ONC0003825, lta]",71.6
17,"CC1CCN(CC[C@H]2CCCN2S(=O)(=O)c2cccc(O)c2)CC1 [ONC0001877, sb269970]",83.54
18,"Cc1cc2c(cc1C(F)(F)F)N(C(=O)Nc1ccc(Oc3cccnc3C)nc1)CC2 [ONC0001698, sb243213]",69.79
19,"C[C@@](Cc1ccc(O)c(O)c1)(NN)C(=O)O [ONC0004068, carbidopa]",120.3
20,"C=CC(=O)Nc1cccc(Oc2nc(Nc3ccc(N4CCN(C)CC4)cc3)ncc2Cl)c1 [ONC0004716, wz3146]",99.4

# Two records picked at random from the list so far, as already listed:
row,SMILES,% viability [%]
9,"O=C(Nc1c[nH]nc1-c1nc2cc(CN3CCOCC3)ccc2[nH]1)NC1CC1 [ONC0004692, at9283]",87.23
12,"COCc1c[n+]([O-])c(C)cn1 [ONC0005343, proacipimox]",127.4
